Source: PubChem BioAssay AID493014 (National Center for Advancing Translational Sciences (NCATS), 2011)
Among all 340,000 compounds or so, about 170 (0.05%) were called active. This list was built around the results that the source calls inconclusive (neither active nor inactive); the mix of calls is not that of the screen. Calls follow the shape of the dose curve; as a rule, active = well fitted inhibition curve with a large enough effect in the signal ratio, with a control signal flat (not every such curve was filed as active); inconclusive = small, poorly fitted or top-dose-only effect, or effect the other way, or a change in a side signal; inactive = flat fitted curve, though single readings scatter; the % refers to the signal ratio. Potencies of inconclusive entries are doubtful fits and often do not repeat.

Assay: qHTS Assay to Find Inhibitors of Chronic Active B-Cell Receptor Signaling;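 as to activity change, negative = inhibition: plate controls were basal doxycycline-induced cells for no effect and cells given 10 µM MG132 for full effect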
Conditions: ABC-DLBCL IkBa-CBG/CBR reporter, luminescence ratio (green luciferase fused to IkBa over red control in TMD8 lymphoma cells), 4 h; activity change, negative = inhibition: at 46.1 µM (top of the series) unless noted
Method in brief: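 TMD8 ABC-DLBCL cells carrying doxycycline-inducible green luciferase fused to IkappaBalpha plus unfused red luciferase were exposed to compounds (up to 46 uM) for 4 hrs at 37C. Activity came from the overlap-corrected green/red luminescence ratio.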
Potency is read from the fitted curve at half-maximal effect.

Structure (SMILES) | activity change, negative = inhibition | Potency
Cn1c(-c2cccc([N+](=O)[O-])c2)cnc1NCc1cccc([N+](=O)[O-])c1 | inactive: 0.626% | 
C=C(C)CNC(=S)N/N=C(\C)c1ccc(OC)cc1 |  | inconclusive: 20.6 µM [falling, partial curve, poor fit]
CCOc1ccc(NC(=O)NCc2ccc3c(c2)OCO3)cc1 | inconclusive: -17.7% | 
CCNC(=S)N1CCN(c2nc(-c3cccc(OC)c3)cs2)CC1 | inactive: -1.28% | 
O=C(CN1CCOCC1)Nc1nc2ccc([N+](=O)[O-])cc2s1 | inconclusive: -4.88% | 
CC(=O)c1cccc(NC(=O)COc2ccccc2C(=O)c2cc(C#N)c(=O)n(C3CCCCC3)c2)c1 | inconclusive: -9.55% | 
O=C(CCc1ccccc1)Nc1nnc(-c2ccc3c(c2)CCCC3)o1 | inconclusive: 3.17% | 
O=C(NC(NC(=S)Nc1ccc(Cl)c(Cl)c1)C(Cl)(Cl)Cl)c1ccco1 (stereo not given) |  | inconclusive: 14.1 µM [rising, single point]
COc1ccc2c(c1)cc(C(=O)N[C@@H](Cc1ccccc1)C(=O)O)n2C | inconclusive: -0.345% | 
CC(C)OC(=O)c1cccnc1SCC(=O)Nc1ccc(C(F)(F)F)cc1Cl | inconclusive: 7.55% | 
CN(Cc1ccccc1)c1ccc2nnc(-c3ccccc3)n2n1 | inconclusive: -8% | 
O=[N+]([O-])c1cc(-c2nnc(Nc3ccc(O)cc3)c3ccccc23)ccc1N1CCOCC1 |  | inconclusive: 2.91 µM [falling, partial curve, poor fit]
CCOc1ccccc1N(CC(=O)Nc1cccc(OC)c1)S(=O)(=O)c1ccccc1 |  | inconclusive: 15.8 µM [rising, partial curve, poor fit]
Oc1ccc2ccccc2c1CN1CCN(C/C=C/c2ccccc2)CC1 | inconclusive: -14.7% | 
C/C(CC(=O)Nc1cc(Cl)ccc1Cl)=N\NC(=O)c1ccccc1Br |  | inconclusive: 20 µM [falling, partial curve, poor fit]
CC(C)=CC(=O)OCC(=O)Nc1cc(C)ccc1C | inconclusive: 2.52% | 
O=C(COC(=O)c1cccs1)c1ccc2ccccc2c1 |  | inconclusive: 29.1 µM [falling, single point]
O=c1c2ccccc2[nH]c(=S)n1CCC1=CCCCC1 | inconclusive: -0.255% | 
Cc1ccc(C(C)C)c(OCC(=O)NCC(c2cccs2)N2CCOCC2)c1 (stereo not given) | inactive: 3.7% | 
O=S(=O)(/N=C(/NC(=S)Nc1ccccc1)c1ccccc1)c1ccc(Cl)cc1 | inconclusive: -29.5% | 

11 entries from above, as tab-separated lines.
Structure (SMILES)	activity change, negative = inhibition	Potency
CCNC(=S)N1CCN(c2nc(-c3cccc(OC)c3)cs2)CC1	inactive: -1.28%	
O=C(CN1CCOCC1)Nc1nc2ccc([N+](=O)[O-])cc2s1	inconclusive: -4.88%	
CC(=O)c1cccc(NC(=O)COc2ccccc2C(=O)c2cc(C#N)c(=O)n(C3CCCCC3)c2)c1	inconclusive: -9.55%	
CN(Cc1ccccc1)c1ccc2nnc(-c3ccccc3)n2n1	inconclusive: -8%	
CCOc1ccccc1N(CC(=O)Nc1cccc(OC)c1)S(=O)(=O)c1ccccc1		inconclusive: 15.8 µM [rising, partial curve, poor fit]
Oc1ccc2ccccc2c1CN1CCN(C/C=C/c2ccccc2)CC1	inconclusive: -14.7%	
C/C(CC(=O)Nc1cc(Cl)ccc1Cl)=N\NC(=O)c1ccccc1Br		inconclusive: 20 µM [falling, partial curve, poor fit]
CC(C)=CC(=O)OCC(=O)Nc1cc(C)ccc1C	inconclusive: 2.52%	
O=C(COC(=O)c1cccs1)c1ccc2ccccc2c1		inconclusive: 29.1 µM [falling, single point]
Cc1ccc(C(C)C)c(OCC(=O)NCC(c2cccs2)N2CCOCC2)c1 (stereo not given)	inactive: 3.7%	
O=S(=O)(/N=C(/NC(=S)Nc1ccccc1)c1ccccc1)c1ccc(Cl)cc1	inconclusive: -29.5%	

(further entries)

Structure (SMILES) | activity change, negative = inhibition | Potency
Clc1ccc(CN2CCN(c3ncccn3)CC2)c(Cl)c1 | inactive: 3.64% | 
Cc1ccc(Cl)cc1N1CCN(C(=O)CCCCCn2c(=O)[nH]c3ccccc3c2=O)CC1 | inconclusive: -21.4% | 
O=C(/C=C/c1ccco1)N(c1ccccn1)c1ccccn1 | inactive: -1.59% | 
NNC(=O)c1ccc(COc2ccc3c(c2)CCC3)o1 |  | inconclusive: 20.6 µM [falling, single point]
Cc1cccc(NS(=O)(=O)c2ccc(OCC(=O)N3CCCC3)cc2)c1 | inconclusive: -179% | 
COc1ccc(C2OC(=O)Cc3cc(OC)c(OC)cc32)cc1 (stereo not given) |  | inconclusive: 5.62 µM [falling, partial curve, poor fit]
C/C(=N\NC(=O)c1ccccc1O)c1c(O)cc(C)oc1=O |  | inconclusive: 4.47 µM [falling, partial curve]
CC[C@]1(C(=O)OC)[C@H]2C(=O)N(C)C(=O)[C@H]2[C@H]2CN(C)C(=NC3CCCCC3)N21 | inactive: 0.843% | 
O=C(NNC(=S)NC(=O)c1ccc(F)cc1)c1cccnc1 |  | inconclusive: 11.2 µM [falling, partial curve, poor fit]
O=C(C(=O)N1CCCCCC1)c1c[nH]c2ccccc12 |  | inconclusive: 14.1 µM [falling, partial curve, poor fit]
C=CCN1N=C(/C=C/c2ccccc2)CCC1=O | inconclusive: 3.01% | 
CNC(=O)c1sc(-c2cccnc2)nc1C | inconclusive: 0.97% | 
Fc1ccc(-c2nnc(SCc3cccnc3)o2)cc1 | inconclusive: -15.1% | 
CCC(C)NCCCOc1c(C)cc(C)cc1Br (stereo not given) | inactive: -6.31% | 
Cc1ccc2c(Cl)cc(Cl)c(OCC(=O)NCc3ccco3)c2n1 | inactive: -1.28% | 
CC1=NN(C(=S)Nc2ccccc2)C(C)(C)C1 | inactive: 0.354% | 
Cn1ccnc1C1CCCCN1Cc1nc(-c2ccc3c(c2)OCO3)no1 (stereo not given) | inactive: -5.62% | 
CC(C)n1c(CCCO)nc2ccccc21 | inconclusive: 1.61% | 
O=C(O)C1Nc2c(C(F)(F)F)ccc(Cl)c2C2C=CCC12 (stereo not given) | inconclusive: 0.257% | 
CC(NC(=O)C1CCC(CNc2c(N3CCOCC3)c(=O)c2=O)CC1)c1ccccc1 (stereo not given) | inconclusive: 20% | 
